This note sets out measurements from paper PMC8094117.

Sequences of proteins named here, by UniProt entry; tags and fusion partners are left off.
UniProt P38903: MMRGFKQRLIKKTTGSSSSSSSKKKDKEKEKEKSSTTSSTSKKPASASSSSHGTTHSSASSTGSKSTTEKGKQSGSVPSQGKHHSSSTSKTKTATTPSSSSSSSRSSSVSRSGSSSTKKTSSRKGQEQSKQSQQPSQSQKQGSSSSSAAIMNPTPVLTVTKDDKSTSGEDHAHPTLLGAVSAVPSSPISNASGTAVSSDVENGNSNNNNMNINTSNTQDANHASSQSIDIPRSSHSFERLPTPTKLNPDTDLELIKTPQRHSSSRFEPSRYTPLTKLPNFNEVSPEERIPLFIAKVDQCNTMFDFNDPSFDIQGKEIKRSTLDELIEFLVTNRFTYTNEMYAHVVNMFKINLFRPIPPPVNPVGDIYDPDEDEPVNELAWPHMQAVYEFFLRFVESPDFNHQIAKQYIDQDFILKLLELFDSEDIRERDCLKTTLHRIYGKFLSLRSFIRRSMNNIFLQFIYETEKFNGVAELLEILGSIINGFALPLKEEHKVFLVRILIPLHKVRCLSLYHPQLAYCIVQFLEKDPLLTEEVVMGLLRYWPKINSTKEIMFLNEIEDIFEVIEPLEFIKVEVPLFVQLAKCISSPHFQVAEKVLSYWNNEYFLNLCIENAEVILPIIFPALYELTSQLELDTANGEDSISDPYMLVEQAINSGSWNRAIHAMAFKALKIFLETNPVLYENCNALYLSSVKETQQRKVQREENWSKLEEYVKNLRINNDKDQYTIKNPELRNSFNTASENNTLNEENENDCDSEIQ

The target in assay [1] is T1, Sgo1-TAP (S. cerevisiae) (UniProt Q08490).
T1 sequence: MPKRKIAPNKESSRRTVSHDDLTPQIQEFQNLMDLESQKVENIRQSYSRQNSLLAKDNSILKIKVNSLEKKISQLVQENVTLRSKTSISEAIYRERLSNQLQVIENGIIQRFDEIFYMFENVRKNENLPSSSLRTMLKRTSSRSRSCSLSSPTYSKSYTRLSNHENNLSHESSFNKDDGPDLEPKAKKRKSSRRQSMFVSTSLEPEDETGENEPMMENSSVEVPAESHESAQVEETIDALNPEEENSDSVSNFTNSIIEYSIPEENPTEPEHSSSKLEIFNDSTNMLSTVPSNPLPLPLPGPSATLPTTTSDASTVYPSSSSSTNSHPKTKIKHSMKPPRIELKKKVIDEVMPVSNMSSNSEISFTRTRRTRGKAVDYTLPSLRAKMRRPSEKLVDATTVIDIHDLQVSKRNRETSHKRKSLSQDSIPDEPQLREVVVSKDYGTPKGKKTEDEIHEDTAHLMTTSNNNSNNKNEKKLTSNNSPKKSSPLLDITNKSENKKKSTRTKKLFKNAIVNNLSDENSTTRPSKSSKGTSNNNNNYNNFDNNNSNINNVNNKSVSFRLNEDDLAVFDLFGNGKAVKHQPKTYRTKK
In words: co-IP; Sgo1-TAP captured on rabbit IgG Dynabeads from benzonase-treated lysates of cycling cells grown at room temperature (wild type, siz1Δ siz2Δ, pCUP1-SIZ2, sgo1-4R, sgo1-3A); Rts1-9Myc by anti-Myc blot, Sgo1-TAP by PAP.

Assay [2] has as its target T2, recombinant Hisx7-V5-tagged Sgo1, unSUMOylated (S. cerevisiae) (UniProt Q08490).
T2 sequence: T1 sequence
Nature of the assay: pull-down; product of in vitro SUMOylation (+ATP) or unmodified control (-ATP) of V5-Sgo1 held on anti-V5 Protein G Dynabeads, washed, incubated 2 h at 4°C with extract of sgo1Δ RTS1-9MYC yeast; binding buffer A (25 mM Hepes pH 7.5, 150 mM KCl, 2 mM MgCl2, 15% glycerol, 0.1% NP-40); anti-V5 and anti-Myc blots; only the target purified.

Results are given in words; binding and its absence hold for the method and conditions named. Binding seen in cells or lysates may run through a third protein. Some binding calls cover weakened binding; strength is not graded here. For some assays here: Where a sequence is shown, tags or fusion partners need not be part of it.

Rts1-9Myc (from UniProt P38903 1-757): the binding result in assay [1] and in assay [2] was “binds” each time.
